# Experiments:
# [1] = tested on: Staphylococcus epidermidis No. 533; experiment: Specific activity against resistant bacterial strains; assay type: cell-based; conditions: NO.533, read-out: MICs for Vancomycin
# Protocol: The tested agents were water-soluble hemin derivatives (compounds VII and XVIII) or DMSO-soluble derivatives (compounds VIII, XV, and XIV). Vancomycin was the reference compound. Each compound was tested in three replicas.
# Sterile single-use flat-bottomed 96-well plates, Petri dishes, pipettes, tips, and test tubes (Pan-Eco, Moscow) were used in the study.
# The nutritional media used were as follows. A working Mueller Hinton broth was prepared from dry media (Mueller Hinton broth, Acumedia, Baltimore) and sterilized by autoclaving at 121° C. for 15 min.
# Staphylococcus aureus was cultured on the Tripticase Soy Agar (BBL) commercially available dry medium. Enterococcus faecalis was cultured on the Columbia Agar Base (BBL) commercially available dry medium. These media were sterilized by autoclaving at 121° C. for 15 min.
# Bacterial inoculum was fixed and equal to 5×10^5 CFU/mL.
# For water-soluble compounds, wells from 2nd through 8th were added with the solvent (water) in an amount of 15 μL per well, then the 1st well was added with 30 μL of the stock solution of the tested compound in water with a concentration of 1×10^3M, and the concentration was adjusted to 0.007×10^3 M by serial twofold dilutions. […]
# Culture growth was evaluated visually by comparison of how microorganisms grew in the presence of tested compounds and in the absence of them. […]
# [2] = tested on: Enterococcus faecium No. 569; experiment: as above; assay type: cell-based; conditions: NO.569, read-out: MICs for Vancomycin
compound,measurement,setting,value
"CN[C@H](CC(C)C)C(=O)N[C@H]1C(=O)N[C@@H](CC(N)=O)C(=O)N[C@H]2C(=O)N[C@H]3C(=O)N[C@H](C(=O)N[C@H](C(=O)O)c4cc(O)cc(O)c4-c4cc3ccc4O)[C@H](O)c3ccc(c(Cl)c3)Oc3cc2cc(c3O[C@@H]2O[C@H](CO)[C@@H](O)[C@H](O)[C@H]2O[C@H]2C[C@](C)(N)[C@H](O)[C@H](C)O2)Oc2ccc(cc2Cl)[C@H]1O [Vancomycin, reference compound]",MIC,[1],1 µg/mL
same,MIC,[2],> 32 µg/mL
